Measured values published in PMC6750928.

Chains of the proteins cited; added tags and fusions are not shown. Lines headed by an entry give the natural chain unless they say otherwise; changes in a name come on top. Residues count along the entry.
UniProt P30988: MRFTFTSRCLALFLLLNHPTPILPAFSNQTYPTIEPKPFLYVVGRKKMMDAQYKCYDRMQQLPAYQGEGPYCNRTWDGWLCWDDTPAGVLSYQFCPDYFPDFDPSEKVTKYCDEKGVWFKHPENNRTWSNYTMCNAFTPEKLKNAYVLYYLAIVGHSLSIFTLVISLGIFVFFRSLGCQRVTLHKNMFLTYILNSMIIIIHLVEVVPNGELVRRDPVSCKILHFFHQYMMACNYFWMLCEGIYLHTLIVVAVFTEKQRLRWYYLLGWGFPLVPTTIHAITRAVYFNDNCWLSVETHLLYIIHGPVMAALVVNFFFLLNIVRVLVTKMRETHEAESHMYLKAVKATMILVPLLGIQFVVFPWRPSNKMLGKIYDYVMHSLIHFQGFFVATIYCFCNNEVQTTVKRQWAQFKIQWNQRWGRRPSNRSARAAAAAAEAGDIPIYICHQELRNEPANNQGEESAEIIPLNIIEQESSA
UniProt O60895, residues 43-175: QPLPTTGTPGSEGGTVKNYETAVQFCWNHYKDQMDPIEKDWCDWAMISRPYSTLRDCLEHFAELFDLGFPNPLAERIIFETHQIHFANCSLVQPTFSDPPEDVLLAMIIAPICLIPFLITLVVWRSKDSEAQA

Molecular target: Calcitonin receptor (human) (UniProt P30988)
Experiment: co-IP; multiplexed suspension bead array (SBA) immunoassay: clarified lysates (1% DM; 50 mM Hepes, 1 mM EDTA, 150 mM NaCl, 5 mM MgCl2, pH 7.4) of HEK293F cells cotransfected with tagged GPCR and RAMP, diluted to 50 ug/ml, incubated overnight at 4°C with bar-coded beads carrying anti-tag (HA, 1D4, FLAG, OLLAS), anti-GPCR or anti-RAMP Abs; the partner detected with a PE-conjugated anti-tag mAb; Luminex FlexMap 3D, MFI

Row | Molecule | binding
1 | Receptor activity-modifying protein 2 (from UniProt O60895 43-175) | binds
2 | Receptor activity-modifying protein 3 (protein, UniProt O60896 28-148) CNETGMLERLPLCGKAFADMMGKVDVWKWCNLSEFIVYYESFTNCTEMEANVVGCYWPNPLAQGFITGIHRQFFSNCTVDRVHLEDPPDEVLIPLIVIPVVLTVAMAGLVVWRSKRTDTLL | binds

No constants are given. Whether binding was seen depends on the method and setting. In cells and extracts the contact can be indirect. Binding can be weak; no strength is given.
